From paper PMC7782510
No constants are given. Whether binding was seen depends on the method and setting. Binding seen in cells or lysates may run through a third protein. Some results given as binding are weak or reduced against the parent protein; the word gives no strength. Values belong to the binder of their own block, whether it stands above or below them.

Experiments:
[1] = target: T1, CCCTC binding factor (CTCF) (mouse (endogenous in murine HSPCs)) (UniProt Q61164); assay: co-IP; reciprocal co-IP of endogenous proteins from murine HSPC (lineage- c-kit+) lysate; IP buffer 50 mM Tris-Cl pH 8.0, 1% NP-40, 5 mM EDTA; antibody pre-bound dynabeads, overnight at 4 °C; five washes; Western blot
T1 sequence: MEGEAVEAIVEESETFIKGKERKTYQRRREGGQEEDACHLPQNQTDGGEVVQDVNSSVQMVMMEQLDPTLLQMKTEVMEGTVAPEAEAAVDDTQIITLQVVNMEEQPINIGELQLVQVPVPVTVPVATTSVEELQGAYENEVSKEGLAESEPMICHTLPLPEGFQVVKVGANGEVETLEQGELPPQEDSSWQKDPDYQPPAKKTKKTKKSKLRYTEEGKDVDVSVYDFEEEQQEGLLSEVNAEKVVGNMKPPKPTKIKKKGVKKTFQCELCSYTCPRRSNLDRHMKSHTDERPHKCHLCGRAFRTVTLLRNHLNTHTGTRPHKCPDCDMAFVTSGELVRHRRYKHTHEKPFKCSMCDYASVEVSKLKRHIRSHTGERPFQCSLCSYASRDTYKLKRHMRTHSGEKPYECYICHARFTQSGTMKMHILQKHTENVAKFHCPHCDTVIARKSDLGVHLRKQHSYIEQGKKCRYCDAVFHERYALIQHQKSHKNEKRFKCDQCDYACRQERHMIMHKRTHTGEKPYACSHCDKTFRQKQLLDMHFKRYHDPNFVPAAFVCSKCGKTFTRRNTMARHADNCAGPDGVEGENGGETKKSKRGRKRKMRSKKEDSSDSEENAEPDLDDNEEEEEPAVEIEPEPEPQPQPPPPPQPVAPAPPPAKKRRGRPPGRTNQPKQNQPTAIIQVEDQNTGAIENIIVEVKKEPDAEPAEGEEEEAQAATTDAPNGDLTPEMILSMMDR

[2] = target: T2, zinc finger protein 143 (ZNF143) (mouse (endogenous in murine HSPCs)) (UniProt O70230); assay: as above
T2 sequence: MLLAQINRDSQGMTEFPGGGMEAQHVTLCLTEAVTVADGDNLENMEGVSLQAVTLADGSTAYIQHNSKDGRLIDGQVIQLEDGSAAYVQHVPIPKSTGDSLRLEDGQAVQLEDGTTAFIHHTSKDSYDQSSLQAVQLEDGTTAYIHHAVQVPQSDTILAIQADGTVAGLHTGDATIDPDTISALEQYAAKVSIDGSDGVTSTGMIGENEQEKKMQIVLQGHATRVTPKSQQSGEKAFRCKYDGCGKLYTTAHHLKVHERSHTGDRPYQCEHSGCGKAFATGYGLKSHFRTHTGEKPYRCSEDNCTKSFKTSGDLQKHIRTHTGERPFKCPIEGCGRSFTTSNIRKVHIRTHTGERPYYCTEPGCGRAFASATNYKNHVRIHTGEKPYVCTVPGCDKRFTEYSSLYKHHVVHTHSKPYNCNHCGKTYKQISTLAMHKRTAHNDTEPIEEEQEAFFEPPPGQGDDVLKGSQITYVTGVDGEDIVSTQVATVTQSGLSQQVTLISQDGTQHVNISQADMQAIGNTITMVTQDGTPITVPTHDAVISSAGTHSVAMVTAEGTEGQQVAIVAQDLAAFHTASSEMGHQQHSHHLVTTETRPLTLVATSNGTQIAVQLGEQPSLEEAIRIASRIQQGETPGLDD

- binding [1]: binds
B1: zinc finger protein 143 (ZNF143) (protein, UniProt O70230 1-638)
chain: T2 sequence

- binding [2]: binds
B2: CCCTC binding factor (CTCF) (protein, UniProt Q61164 1-736)
chain: T1 sequence
